The list shows a part of the results.
Columns and labels:
Test in all cases: log2 fold change, soluble protein after heating vs DMSO (PISA); higher = thermal stabilisation; K562 lysate, 10 uM; active = over 0.2 and 3.5 SD of the protein, either way, in both replicates (recomputed)
lapatinib = compound: CS(=O)(=O)CCNCc1ccc(-c2ccc3ncnc(Nc4ccc(OCc5cccc(F)c5)c(Cl)c4)c3c2)o1 [lapatinib]
Summary of the method: (§1)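 To prepare the extract, K562 pellets were dounce-homogenised in PBS pH 7.4 with 1 mM MgCl2, giving crude material at 1 mg/mL protein. This was treated with 10 μM compound for 30 min, then heated in aliquots for 3 min over 48°C-58°C before pooling and addition of NP-40 to 0.5% at 4°C. Centrifugation at 21,000xg for 90 min left soluble protein in the supernatant, which TMTpro 16plex LC-MS/MS quantified with equalised channel sums. Results are log-two fold changes in thermal stability compared with solvent controls, from duplicates.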

Sequences of proteins named here, by UniProt entry; tags and fusion partners are left off. A change or cut given only in a name is not applied to a line headed by its entry.
UniProt Q14241: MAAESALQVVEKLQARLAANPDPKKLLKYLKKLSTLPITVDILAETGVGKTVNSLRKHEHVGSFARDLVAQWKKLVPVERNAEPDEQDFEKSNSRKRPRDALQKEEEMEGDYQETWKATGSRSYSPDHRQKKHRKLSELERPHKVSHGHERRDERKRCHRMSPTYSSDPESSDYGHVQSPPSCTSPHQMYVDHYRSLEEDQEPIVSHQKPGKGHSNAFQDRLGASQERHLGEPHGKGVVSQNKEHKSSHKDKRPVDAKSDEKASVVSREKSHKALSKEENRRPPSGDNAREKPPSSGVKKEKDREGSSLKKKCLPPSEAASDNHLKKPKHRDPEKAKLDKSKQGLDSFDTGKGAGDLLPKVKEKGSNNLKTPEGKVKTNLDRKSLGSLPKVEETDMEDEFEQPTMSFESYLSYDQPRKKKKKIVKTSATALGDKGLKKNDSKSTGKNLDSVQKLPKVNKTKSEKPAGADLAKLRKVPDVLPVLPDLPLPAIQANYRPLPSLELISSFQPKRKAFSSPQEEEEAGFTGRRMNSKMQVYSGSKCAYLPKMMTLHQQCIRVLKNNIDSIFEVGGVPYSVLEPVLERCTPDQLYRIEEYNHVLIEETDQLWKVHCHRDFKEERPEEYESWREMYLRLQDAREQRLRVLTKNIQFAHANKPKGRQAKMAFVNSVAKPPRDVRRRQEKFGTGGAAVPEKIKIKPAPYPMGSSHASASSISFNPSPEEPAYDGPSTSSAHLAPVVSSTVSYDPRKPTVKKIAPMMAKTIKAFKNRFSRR
UniProt Q8NFI3: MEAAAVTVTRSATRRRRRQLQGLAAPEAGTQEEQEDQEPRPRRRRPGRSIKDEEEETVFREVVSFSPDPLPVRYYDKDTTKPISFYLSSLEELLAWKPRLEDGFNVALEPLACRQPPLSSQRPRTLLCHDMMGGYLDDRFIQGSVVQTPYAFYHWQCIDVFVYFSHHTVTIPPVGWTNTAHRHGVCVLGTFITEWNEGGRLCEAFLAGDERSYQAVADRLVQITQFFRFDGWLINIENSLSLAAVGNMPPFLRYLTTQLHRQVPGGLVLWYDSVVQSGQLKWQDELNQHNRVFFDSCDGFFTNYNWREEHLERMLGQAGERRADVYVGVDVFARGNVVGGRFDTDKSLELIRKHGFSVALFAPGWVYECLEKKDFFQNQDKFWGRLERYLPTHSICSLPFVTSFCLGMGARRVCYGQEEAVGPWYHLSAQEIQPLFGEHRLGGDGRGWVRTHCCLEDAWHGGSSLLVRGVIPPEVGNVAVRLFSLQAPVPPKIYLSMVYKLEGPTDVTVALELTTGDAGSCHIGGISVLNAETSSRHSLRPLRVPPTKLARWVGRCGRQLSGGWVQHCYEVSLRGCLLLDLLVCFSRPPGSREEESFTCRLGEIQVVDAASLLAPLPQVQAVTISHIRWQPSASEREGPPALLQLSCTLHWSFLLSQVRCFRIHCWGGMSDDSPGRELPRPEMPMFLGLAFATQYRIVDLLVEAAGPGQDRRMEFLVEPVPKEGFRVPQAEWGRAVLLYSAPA
UniProt Q9UBC2: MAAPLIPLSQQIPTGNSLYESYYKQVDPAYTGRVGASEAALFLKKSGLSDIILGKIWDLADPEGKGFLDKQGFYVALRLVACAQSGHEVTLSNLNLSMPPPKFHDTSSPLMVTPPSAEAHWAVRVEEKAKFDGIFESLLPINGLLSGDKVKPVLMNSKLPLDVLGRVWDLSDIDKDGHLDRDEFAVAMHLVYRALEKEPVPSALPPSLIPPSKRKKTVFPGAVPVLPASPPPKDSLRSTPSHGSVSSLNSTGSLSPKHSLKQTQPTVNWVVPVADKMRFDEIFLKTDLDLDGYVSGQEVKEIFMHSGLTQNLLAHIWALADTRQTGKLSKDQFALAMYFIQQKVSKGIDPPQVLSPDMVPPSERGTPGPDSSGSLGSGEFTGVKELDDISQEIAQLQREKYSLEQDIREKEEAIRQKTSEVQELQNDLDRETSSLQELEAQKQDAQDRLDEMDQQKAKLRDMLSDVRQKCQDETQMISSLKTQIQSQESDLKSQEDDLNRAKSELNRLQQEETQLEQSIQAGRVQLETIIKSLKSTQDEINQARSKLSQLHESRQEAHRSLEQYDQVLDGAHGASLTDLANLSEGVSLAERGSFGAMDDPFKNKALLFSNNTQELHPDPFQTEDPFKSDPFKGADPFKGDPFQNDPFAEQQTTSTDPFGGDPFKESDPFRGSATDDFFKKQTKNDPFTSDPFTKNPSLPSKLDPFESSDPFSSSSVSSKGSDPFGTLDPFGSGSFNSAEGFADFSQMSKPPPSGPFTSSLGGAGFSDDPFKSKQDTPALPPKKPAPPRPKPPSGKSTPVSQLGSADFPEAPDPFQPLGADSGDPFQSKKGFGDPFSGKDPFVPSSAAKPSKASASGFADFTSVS
UniProt P13929, whole entry, looked up: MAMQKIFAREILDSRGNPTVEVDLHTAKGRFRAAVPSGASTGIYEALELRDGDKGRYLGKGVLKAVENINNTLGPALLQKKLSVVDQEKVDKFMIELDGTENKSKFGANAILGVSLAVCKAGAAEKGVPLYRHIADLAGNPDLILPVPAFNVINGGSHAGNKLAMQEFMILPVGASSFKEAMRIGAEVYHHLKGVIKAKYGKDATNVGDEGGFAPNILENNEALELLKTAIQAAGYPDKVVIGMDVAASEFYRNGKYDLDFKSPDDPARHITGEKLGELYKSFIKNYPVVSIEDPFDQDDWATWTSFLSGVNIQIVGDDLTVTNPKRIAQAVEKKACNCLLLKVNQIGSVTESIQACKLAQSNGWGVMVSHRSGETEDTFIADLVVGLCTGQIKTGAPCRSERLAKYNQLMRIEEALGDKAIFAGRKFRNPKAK
UniProt Q13144, whole entry, looked up: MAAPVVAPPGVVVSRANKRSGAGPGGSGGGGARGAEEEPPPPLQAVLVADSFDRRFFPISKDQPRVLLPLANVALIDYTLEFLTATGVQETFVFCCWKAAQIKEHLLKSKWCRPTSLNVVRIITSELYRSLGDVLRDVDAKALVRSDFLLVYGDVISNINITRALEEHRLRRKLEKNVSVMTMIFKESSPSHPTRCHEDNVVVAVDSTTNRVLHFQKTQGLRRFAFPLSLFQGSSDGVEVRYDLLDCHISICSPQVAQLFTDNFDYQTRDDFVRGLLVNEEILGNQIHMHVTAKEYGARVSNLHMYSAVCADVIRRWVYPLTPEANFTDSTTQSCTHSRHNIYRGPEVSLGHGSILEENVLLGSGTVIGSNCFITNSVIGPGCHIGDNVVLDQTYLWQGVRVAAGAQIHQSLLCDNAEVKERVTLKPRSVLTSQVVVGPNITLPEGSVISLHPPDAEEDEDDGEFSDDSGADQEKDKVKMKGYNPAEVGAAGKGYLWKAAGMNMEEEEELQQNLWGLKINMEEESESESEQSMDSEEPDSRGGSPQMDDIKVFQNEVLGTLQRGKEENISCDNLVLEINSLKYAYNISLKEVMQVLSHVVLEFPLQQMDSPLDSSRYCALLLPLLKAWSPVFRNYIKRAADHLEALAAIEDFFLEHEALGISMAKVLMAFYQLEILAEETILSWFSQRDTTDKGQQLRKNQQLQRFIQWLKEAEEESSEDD
UniProt P23588, whole entry, looked up: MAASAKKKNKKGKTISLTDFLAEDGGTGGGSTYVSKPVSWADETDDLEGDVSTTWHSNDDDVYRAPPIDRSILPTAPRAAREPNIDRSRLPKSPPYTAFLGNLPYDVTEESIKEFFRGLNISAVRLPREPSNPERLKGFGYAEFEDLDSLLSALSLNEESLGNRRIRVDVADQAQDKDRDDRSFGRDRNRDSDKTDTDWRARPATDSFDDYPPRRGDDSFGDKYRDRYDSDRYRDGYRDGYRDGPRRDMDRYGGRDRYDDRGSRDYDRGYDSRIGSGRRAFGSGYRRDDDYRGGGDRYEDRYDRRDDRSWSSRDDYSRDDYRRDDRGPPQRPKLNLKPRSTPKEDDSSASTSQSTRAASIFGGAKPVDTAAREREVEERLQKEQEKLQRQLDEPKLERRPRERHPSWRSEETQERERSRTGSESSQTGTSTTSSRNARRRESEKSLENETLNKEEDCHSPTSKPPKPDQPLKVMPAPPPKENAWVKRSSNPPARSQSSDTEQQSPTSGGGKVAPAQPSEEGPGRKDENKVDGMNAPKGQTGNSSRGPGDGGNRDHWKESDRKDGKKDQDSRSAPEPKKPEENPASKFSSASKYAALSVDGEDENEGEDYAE
UniProt Q14240, whole entry, looked up: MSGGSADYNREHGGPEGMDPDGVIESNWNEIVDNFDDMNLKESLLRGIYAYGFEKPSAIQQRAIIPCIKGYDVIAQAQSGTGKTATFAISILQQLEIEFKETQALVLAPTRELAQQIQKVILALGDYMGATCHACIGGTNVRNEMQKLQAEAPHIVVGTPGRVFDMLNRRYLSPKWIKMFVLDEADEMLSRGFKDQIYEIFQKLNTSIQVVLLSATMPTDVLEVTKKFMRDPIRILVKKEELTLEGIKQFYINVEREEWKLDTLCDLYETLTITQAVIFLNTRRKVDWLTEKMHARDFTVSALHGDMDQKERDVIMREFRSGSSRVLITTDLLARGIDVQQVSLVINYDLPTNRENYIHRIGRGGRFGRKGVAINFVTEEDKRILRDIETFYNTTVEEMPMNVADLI
UniProt Q96EB1: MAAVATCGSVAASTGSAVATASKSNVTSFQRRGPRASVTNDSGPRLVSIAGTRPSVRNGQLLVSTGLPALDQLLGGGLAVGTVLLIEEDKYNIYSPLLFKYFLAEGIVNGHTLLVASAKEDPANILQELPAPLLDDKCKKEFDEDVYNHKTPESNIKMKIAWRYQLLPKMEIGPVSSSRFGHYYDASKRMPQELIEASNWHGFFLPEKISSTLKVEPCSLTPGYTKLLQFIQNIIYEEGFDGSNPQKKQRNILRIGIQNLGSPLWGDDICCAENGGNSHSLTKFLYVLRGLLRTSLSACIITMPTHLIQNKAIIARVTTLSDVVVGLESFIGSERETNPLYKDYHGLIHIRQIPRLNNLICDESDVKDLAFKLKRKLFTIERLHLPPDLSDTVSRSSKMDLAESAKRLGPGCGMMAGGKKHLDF
UniProt P55884, whole entry, looked up: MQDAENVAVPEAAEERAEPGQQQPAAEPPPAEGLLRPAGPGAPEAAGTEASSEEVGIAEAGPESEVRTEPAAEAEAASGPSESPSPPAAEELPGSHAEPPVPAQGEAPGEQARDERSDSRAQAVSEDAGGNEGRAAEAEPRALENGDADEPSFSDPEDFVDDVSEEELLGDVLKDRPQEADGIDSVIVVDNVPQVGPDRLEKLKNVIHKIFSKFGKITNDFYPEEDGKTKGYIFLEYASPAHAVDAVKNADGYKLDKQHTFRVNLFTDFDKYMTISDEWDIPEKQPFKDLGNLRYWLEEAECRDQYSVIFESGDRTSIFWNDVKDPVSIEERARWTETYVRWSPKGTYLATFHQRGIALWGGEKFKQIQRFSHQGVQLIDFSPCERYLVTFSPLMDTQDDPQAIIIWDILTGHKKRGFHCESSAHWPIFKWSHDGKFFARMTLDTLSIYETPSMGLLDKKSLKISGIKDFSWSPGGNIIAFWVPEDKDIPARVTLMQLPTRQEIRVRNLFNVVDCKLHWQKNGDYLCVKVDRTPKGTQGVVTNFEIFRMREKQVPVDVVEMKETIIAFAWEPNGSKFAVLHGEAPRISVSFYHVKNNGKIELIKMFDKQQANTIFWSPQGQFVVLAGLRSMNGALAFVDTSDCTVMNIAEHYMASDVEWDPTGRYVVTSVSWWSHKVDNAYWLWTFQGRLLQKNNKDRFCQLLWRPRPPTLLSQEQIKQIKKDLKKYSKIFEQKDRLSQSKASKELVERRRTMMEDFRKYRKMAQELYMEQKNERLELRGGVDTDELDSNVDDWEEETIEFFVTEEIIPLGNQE
UniProt Q5UCC4: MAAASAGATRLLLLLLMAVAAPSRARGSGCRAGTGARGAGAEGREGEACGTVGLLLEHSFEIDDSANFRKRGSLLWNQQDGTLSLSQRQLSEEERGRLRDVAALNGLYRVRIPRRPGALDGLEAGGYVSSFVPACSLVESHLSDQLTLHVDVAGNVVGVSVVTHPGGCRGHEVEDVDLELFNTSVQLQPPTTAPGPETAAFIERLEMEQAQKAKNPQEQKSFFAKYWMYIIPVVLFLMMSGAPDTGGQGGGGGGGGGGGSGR
UniProt Q9Y282: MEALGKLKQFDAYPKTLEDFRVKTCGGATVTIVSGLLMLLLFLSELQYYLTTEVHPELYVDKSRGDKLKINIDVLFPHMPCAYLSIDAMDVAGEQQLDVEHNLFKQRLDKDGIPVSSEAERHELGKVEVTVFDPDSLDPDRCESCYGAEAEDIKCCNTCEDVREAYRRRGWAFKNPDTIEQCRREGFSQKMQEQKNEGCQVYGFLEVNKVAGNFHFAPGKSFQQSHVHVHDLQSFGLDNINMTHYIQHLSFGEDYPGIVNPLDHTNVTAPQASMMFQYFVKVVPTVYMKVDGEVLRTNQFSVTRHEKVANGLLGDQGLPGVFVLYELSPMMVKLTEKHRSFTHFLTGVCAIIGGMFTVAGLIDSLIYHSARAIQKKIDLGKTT

pictilisib = compound: CS(=O)(=O)N1CCN(Cc2cc3nc(-c4cccc5[nH]ncc45)nc(N4CCOCC4)c3s2)CC1 [pictilisib]
Summary of the method: as §1

crizotinib = compound: C[C@@H](Oc1cc(-c2cnn(C3CCNCC3)c2)cnc1N)c1c(Cl)ccc(F)c1Cl [crizotinib]
Summary of the method: as §1

[1] = compound: C[C@H](C1=CC=C(C=C1)C(=O)NC2=C3C=CNC3=NC=C2)N
Summary of the method: as §1

duvelisib = compound: C[C@H](Nc1ncnc2nc[nH]c12)c1cc2cccc(Cl)c2c(=O)n1-c1ccccc1 [duvelisib]
Summary of the method: as §1

gandotinib = compound: Cc1cc(Nc2cc(CN3CCOCC3)c3nc(C)c(Cc4ccc(Cl)cc4F)n3n2)n[nH]1 [gandotinib]
Summary of the method: as §1

tozasertib = compound: Cc1cc(Nc2cc(N3CCN(C)CC3)nc(Sc3ccc(NC(=O)C4CC4)cc3)n2)n[nH]1 [tozasertib]
Summary of the method: as §1

doramapimod = compound: Cc1ccc(-n2nc(C(C)(C)C)cc2NC(=O)Nc2ccc(OCCN3CCOCC3)c3ccccc23)cc1 [doramapimod]
Summary of the method: as §1

bafetinib = compound: Cc1ccc(NC(=O)c2ccc(CN3CC[C@H](N(C)C)C3)c(C(F)(F)F)c2)cc1Nc1nccc(-c2cncnc2)n1 [bafetinib]
Summary of the method: as §1

[2] = compound: Cc1cccc(CC(=O)N2CCc3c2ccc(-c2cn(C)c4ncnc(N)c24)c3F)n1
Summary of the method: as §1

nilotinib = compound: Cc1cn(-c2cc(NC(=O)c3ccc(C)c(Nc4nccc(-c5cccnc5)n4)c3)cc(C(F)(F)F)c2)cn1 [nilotinib]
Summary of the method: as §1

[3] = compound: Cc1nc(Nc2n[nH]c3c2CN(C(=O)N[C@H](CN(C)C)c2ccccc2)C3(C)C)c2sccc2n1
Summary of the method: as §1

dasatinib = compound: Cc1nc(Nc2ncc(C(=O)Nc3c(C)cccc3Cl)s2)cc(N2CCN(CCO)CC2)n1 [dasatinib]
Summary of the method: as §1

[4] = compound: Cc1ncc(-c2ccnc(Nc3ccc(S(C)(=O)=O)cc3)n2)n1C(C)C
Summary of the method: as §1

[5] = compound: Cn1cc(-c2ccc3c(c2)CCN3C(=O)Cc2cccc(C(F)(F)F)c2)c2c(N)ncnc21
Summary of the method: as §1

quisinostat = compound: Cn1cc(CNCC2CCN(c3ncc(C(=O)NO)cn3)CC2)c2ccccc21 [quisinostat]
Summary of the method: as §1

tipifarnib = compound: Cn1cncc1[C@@](N)(c1ccc(Cl)cc1)c1ccc2c(c1)c(-c1cccc(Cl)c1)cc(=O)n2C [tipifarnib]
Summary of the method: as §1

[6] = compound: NC(=O)Nc1cc(-c2cccc(F)c2)sc1C(=O)N[C@H]1CCCNC1
Summary of the method: as §1

[7] = compound: NC(=O)c1cnc(N[C@@H]2CCCC[C@@H]2N)nc1Nc1cccc(-n2nccn2)c1
Summary of the method: as §1

[8] = compound: NC1(c2ccc(-c3nc4ccn5c(=O)[nH]nc5c4cc3-c3ccccc3)cc2)CCC1
Summary of the method: as §1

Measured: log2 fold change

ELOA (UniProt Q14241)
inactive: lapatinib -0.045 | pictilisib -0.029 | crizotinib -0.071 | [1] -0.082 | duvelisib -0.012 | gandotinib 0.111 | tozasertib -0.022 | doramapimod 0.027 | bafetinib 0.09 | [2] 0.094 | nilotinib 0.01 | [3] 0.013 | dasatinib -0.049 | [4] -0.003 | [5] 0.017 | quisinostat -0.143 | tipifarnib -0.021 | [6] 0.045 | [7] -0.015 | [8] -0.019

EML2 isoform 3 (UniProt O95834)
inactive: lapatinib -0.017 | pictilisib -0.027 | crizotinib 0.023 | [1] 0.098 | duvelisib 0.007 | gandotinib -0.079 | tozasertib 0.01 | doramapimod 0.006 | bafetinib -0.032 | [2] -0.066 | nilotinib -0.011 | [3] 0.02 | dasatinib -0.024 | [4] 0.006 | [5] 0.028 | quisinostat 0.081 | tipifarnib 0.005 | [6] -0.013 | [7] -0.008 | [8] -0.003

EPS8L2 (UniProt Q9H6S3)
inactive: lapatinib 0.044 | pictilisib -0.03 | crizotinib -0.012 | [1] -0.068 | duvelisib -0.086 | gandotinib 0.061 | tozasertib -0.258 | doramapimod -0.046 | bafetinib -0.101 | [2] 0.207 | nilotinib -0.011 | [3] 0.05 | dasatinib 0.051 | [4] -0.121 | [5] 0.053 | quisinostat 0.013 | tipifarnib 0.013 | [6] 0.058 | [7] -0.01 | [8] 0.013

ENGASE (UniProt Q8NFI3)
inactive: lapatinib -0.02 | pictilisib 0 | crizotinib 0.011 | [1] -0.048 | duvelisib -0.025 | gandotinib 0.116 | tozasertib 0.051 | doramapimod 0.033 | bafetinib 0.003 | [2] 0.148 | nilotinib 0.02 | [3] -0.083 | dasatinib 0.029 | [4] -0.034 | [5] 0.028 | quisinostat 0.009 | tipifarnib 0.043 | [6] -0.04 | [7] 0.011 | [8] -0.025

EPS15L1 isoform 2 (UniProt Q9UBC2)
inactive: lapatinib 0.025 | pictilisib 0.009 | crizotinib 0.029 | [1] -0.016 | duvelisib 0.011 | gandotinib 0.017 | tozasertib -0.014 | doramapimod 0.012 | bafetinib -0.002 | [2] -0.045 | nilotinib 0.005 | [3] -0.011 | dasatinib 0.02 | [4] 0.04 | [5] -0.009 | quisinostat -0.014 | tipifarnib 0.018 | [6] -0.004 | [7] 0.008 | [8] -0.013

ENO3 (UniProt P13929)
inactive: lapatinib 0.002 | pictilisib -0.135 | crizotinib -0.06 | [1] -0.306 | duvelisib 0.041 | gandotinib 0.214 | tozasertib 0.01 | doramapimod 0.088 | bafetinib 0.077 | [2] 0.128 | nilotinib 0.041 | [3] -0.013 | dasatinib -0.15 | [4] 0.022 | [5] 0.144 | quisinostat 0.047 | tipifarnib 0.016 | [6] -0.02 | [7] 0.002 | [8] -0.011

EIF2B5 (UniProt Q13144)
inactive: lapatinib -0.01 | pictilisib -0.012 | crizotinib -0.009 | [1] -0.005 | duvelisib 0.001 | gandotinib -0.119 | tozasertib -0.019 | doramapimod 0.003 | bafetinib -0.033 | [2] 0.006 | nilotinib -0.004 | [3] 0.037 | dasatinib -0.015 | [4] 0.008 | [5] 0.01 | quisinostat -0.002 | tipifarnib -0.006 | [6] 0.038 | [7] -0.01 | [8] -0.011

EIF3F (UniProt O00303)
inactive: lapatinib 0.004 | pictilisib -0.018 | crizotinib 0.005 | [1] 0.141 | duvelisib -0.022 | gandotinib -0.065 | tozasertib 0.021 | doramapimod 0.015 | bafetinib -0.038 | [2] -0.014 | nilotinib -0.023 | [3] -0.01 | dasatinib -0.039 | [4] 0.006 | [5] 0.023 | quisinostat 0.006 | tipifarnib -0.005 | [6] 0.01 | [7] -0.005 | [8] -0.025

Two records picked at random from the list so far, as already listed:
EPS15L1 isoform 2 (UniProt Q9UBC2)
inactive: lapatinib 0.025 | pictilisib 0.009 | crizotinib 0.029 | [1] -0.016 | duvelisib 0.011 | gandotinib 0.017 | tozasertib -0.014 | doramapimod 0.012 | bafetinib -0.002 | [2] -0.045 | nilotinib 0.005 | [3] -0.011 | dasatinib 0.02 | [4] 0.04 | [5] -0.009 | quisinostat -0.014 | tipifarnib 0.018 | [6] -0.004 | [7] 0.008 | [8] -0.013

EIF2B5 (UniProt Q13144)
inactive: lapatinib -0.01 | pictilisib -0.012 | crizotinib -0.009 | [1] -0.005 | duvelisib 0.001 | gandotinib -0.119 | tozasertib -0.019 | doramapimod 0.003 | bafetinib -0.033 | [2] 0.006 | nilotinib -0.004 | [3] 0.037 | dasatinib -0.015 | [4] 0.008 | [5] 0.01 | quisinostat -0.002 | tipifarnib -0.006 | [6] 0.038 | [7] -0.01 | [8] -0.011

Going on with the list:

EIF4B (UniProt P23588)
inactive: lapatinib 0.014 | pictilisib 0.026 | crizotinib 0.02 | [1] -0.065 | duvelisib 0.004 | gandotinib 0.074 | tozasertib -0.022 | doramapimod -0.037 | bafetinib 0.03 | [2] 0.011 | nilotinib 0.009 | [3] -0.015 | dasatinib 0.027 | [4] -0.035 | [5] 0.011 | quisinostat 0.004 | tipifarnib 0.005 | [6] -0.037 | [7] -0.013 | [8] 0.007

EIF4A2 isoform 2 (UniProt Q14240)
inactive: lapatinib -0.012 | pictilisib -0.008 | crizotinib -0.001 | [1] -0.062 | duvelisib 0.004 | gandotinib 0.024 | tozasertib -0.004 | doramapimod 0.013 | bafetinib 0.013 | [2] 0.035 | nilotinib 0.036 | [3] -0.015 | dasatinib 0.004 | [4] -0.014 | [5] 0.006 | quisinostat 0.031 | tipifarnib 0.023 | [6] -0.013 | [7] -0.014 | [8] 0.015

ELP4 (UniProt Q96EB1)
inactive: lapatinib 0.014 | pictilisib -0.041 | crizotinib -0.033 | [1] -0.012 | duvelisib 0.011 | gandotinib 0.036 | tozasertib -0.002 | doramapimod 0.025 | bafetinib 0.008 | [2] -0.005 | nilotinib 0.022 | [3] 0.003 | dasatinib -0.012 | [4] 0 | [5] 0.006 | quisinostat -0.02 | tipifarnib -0.019 | [6] -0.017 | [7] -0.01 | [8] -0.032

EIF3B isoform 2 (UniProt P55884)
inactive: lapatinib -0.019 | pictilisib 0.006 | crizotinib -0.03 | [1] 0.02 | duvelisib 0.004 | gandotinib -0.035 | tozasertib -0.002 | doramapimod 0.029 | bafetinib 0.008 | [2] -0.018 | nilotinib -0.008 | [3] 0.004 | dasatinib -0.008 | [4] -0.012 | [5] 0.009 | quisinostat -0.058 | tipifarnib 0.004 | [6] 0.003 | [7] -0.002 | [8] -0.018

ENOPH1 (UniProt Q9UHY7)
inactive: lapatinib -0.024 | pictilisib -0.017 | crizotinib -0.035 | [1] -0.003 | duvelisib -0.035 | gandotinib -0.036 | tozasertib -0.018 | doramapimod -0.022 | bafetinib -0.07 | [2] -0.012 | nilotinib -0.03 | [3] 0.011 | dasatinib 0.006 | [4] 0.157 | [5] 0.003 | quisinostat 0.02 | tipifarnib -0.02 | [6] 0.01 | [7] -0.016 | [8] -0.02

EMC10 (UniProt Q5UCC4)
inactive: lapatinib -0.066 | pictilisib -0.051 | crizotinib 0.019 | [1] -0.148 | duvelisib 0.031 | gandotinib 0.127 | tozasertib 0.039 | doramapimod -0.013 | bafetinib 0.01 | [2] 0.185 | nilotinib 0.019 | [3] -0.097 | dasatinib -0.001 | [4] 0.076 | [5] -0.046 | quisinostat 0.027 | tipifarnib -0.054 | [6] -0.052 | [7] -0.008 | [8] -0.027

ERGIC3 isoform 3 (UniProt Q9Y282)
inactive: lapatinib -0.143 | pictilisib -0.094 | crizotinib -0.096 | [1] 0 | duvelisib -0.045 | gandotinib -0.166 | tozasertib -0.002 | doramapimod 0.043 | bafetinib -0.098 | [2] 0.077 | nilotinib -0.044 | [3] 0.012 | dasatinib -0.009 | [4] -0.06 | [5] 0.064 | quisinostat -0.075 | tipifarnib -0.099 | [6] -0.019 | [7] 0.033 | [8] -0.011

EIF3D (UniProt O15371)
inactive: lapatinib -0.011 | pictilisib 0.018 | crizotinib -0.046 | [1] -0.042 | duvelisib 0.002 | gandotinib -0.024 | tozasertib 0.02 | doramapimod 0.034 | bafetinib -0.053 | [2] 0.065 | nilotinib 0.015 | [3] 0.002 | dasatinib -0.017 | [4] -0.013 | [5] 0.05 | quisinostat 0.033 | tipifarnib 0.01 | [6] 0.034 | [7] -0.004 | [8] -0.036

— the supplement of paper PMC10849652
